Laboratory results reported in publication PMC12670160, “A drug-repurposing screen of FDA- and EMA-approved drugs identifies two NF-κB inhibitors active against eumycetoma” (Journal of Antimicrobial Chemotherapy, 2025).
Counter-ions that a name gives are not always drawn. Screen size: about 5,300 compounds; about 130 (2.5%) showed an effect of 50% or more. Some of the results follow. Peptide text beside a SMILES is read from it.

What follows are compounds tested on M. mycetomatis strain mm55. Settings: primary screen, metabolic activity vs growth control; 96 h, 2 µM; inhibitor.

Structure (SMILES)	% viability
O=c1c(-c2ccc(O)cc2)coc2c(C3OC(CO)C(O)C(O)C3O)c(O)ccc12 (stereo not shown) [ONC0003500, kakonein]	67.54%
CO[C@H]1C[C@H](O[C@H]2[C@H](C)O[C@@H](O[C@@H]3/C(C)=C/C[C@@H]4C[C@@H](C[C@]5(C=C[C@H](C)[C@@H](C6CCCCC6)O5)O4)OC(=O)[C@@H]4C=C(C)[C@@H](O)[C@H]5OC/C(=C\C=C\[C@@H]3C)[C@]54O)C[C@@H]2OC)O[C@@H](C)[C@@H]1O [ONC0003980, doramectin]	71.87%
COc1c(C)c(C(=O)c2ccc(N)c(C(=O)O)c2)n2ccccc12 [ONC0005122, ssr128129e ssr]	84.1%
CN1c2cc3c(cc2N=C(c2ccc(C(=O)O)cc2)c2ccccc21)C(C)(C)CCC3(C)C [ONC0003012, le135]	59.64%
CN1C(=O)C(N2CCCCC2)S/C1=C\C(=O)O (stereo not shown) [ONC0002126, ozolinone]	65.42%
C=Cc1cc(O)cc2nc(-c3ccc(O)c(F)c3)oc12 [ONC0000805, prinaberel]	78.92%
OCCNCCCOc1cccc(Cl)c1Cl [ONC0004410, 23dcpe]	142.2%
O=C(Nc1ccc(Cl)cc1)Nc1ccc(Cl)c(Cl)c1 [ONC0003407, triclocarban]	109.1%
CN[C@@H](C)C(=O)N[C@H](C(=O)N1CCC[C@H]1c1nc(C(=O)c2ccc(F)cc2)cs1)C1CCCCC1 [ONC0001956, lcl161]	79.23%
O=C1c2c(O)cccc2Cc2cccc(O)c21 [ONC0003243, anthralin]	102.8%
CC[N+](C)(CC)CCOC(=O)C(O)(c1ccccc1)C1CCCCC1 (stereo not shown) [ONC0004014, oxyphenonium bromide]	59.72%
C[C@H](Nc1cc2c(-c3ccc4c(c3)OCO4)noc2cn1)c1ccccc1 [ONC0002795, tcs7005]	125%
O/N=C/c1ccc(-c2ccc(O)c(F)c2)c(Cl)c1O [ONC0000844, ferb033]	68.86%
O=C(O)c1ccc(SSc2ccc(C(=O)O)cn2)nc1 [ONC0005543, carboxypyridinedisulfide]	91.46%
Cc1cc2ncc(C(=O)NCC(C)(C)NCC(=O)N3CCC[C@H]3C#N)cn2n1 [ONC0001033, anagliptin]	72%
COc1ccc(-c2ccc3c(N4CCOC[C@@H]4C)nc(N4CCOC[C@@H]4C)nc3n2)cc1CO [ONC0004858, azd8055]	116%
COc1cc(C(=O)OCCCN2CCCN(CCCOC(=O)c3cc(OC)c(OC)c(OC)c3)CC2)cc(OC)c1OC [ONC0003640, dilazep]	75.17%
COC(=O)C1=C(C)NC(C)=C([N+](=O)[O-])C1c1ccccc1C(F)(F)F (stereo not shown) [ONC0000082, bayk8644]	91.53%
CC(C)Cc1ccc(C(C)C(=O)O)cc1.NCCCC[C@H](N)C(=O)O (stereo not shown) [ONC0004512, ibuprofen lysine neoprofen]	55.08%

Structure (SMILES)	% viability
O=C1C[C@@H](c2ccccc2)Oc2cc(O)cc(O)c21 [ONC0005480, pinocembrin]	81.43%
Cc1ccc(S(=O)(=O)c2ccc([N+](=O)[O-])o2)cc1 [ONC0005071, nsc697923]	75.2%
COc1cc2c(cc1OC)C(C)NCC2 (stereo not shown) [ONC0002871, isoquinoline67dimethoxy1methyl1234tetrahydro]	145%
CN(C)C/C=C/C(=O)Nc1ccc(C(=O)Nc2cccc(Nc3ncc(Cl)c(-c4c[nH]c5ccccc45)n3)c2)cc1 [ONC0002074, thz1]	55.81%
NC(=O)CN1CCCC1=O [ONC0004070, piracetam]	91.68%
O=C1NC(=O)C(c2cnc3ccccn23)=C1c1cn2c3c(cc(F)cc13)CN(C(=O)N1CCCCC1)CC2 [ONC0001579, ly2090314]	86.82%
OCCN1CCN(CC/C=C2/c3ccccc3Sc3ccc(C(F)(F)F)cc32)CC1 [ONC0002016, flupentixol]	115.8%
N=C(N)NCCC[C@H](NC(=O)c1sccc1NS(=O)(=O)c1cccc2nsnc12)C(=O)O [ONC0004149, eg00229]	88.01%
O=C(NC[C@H](O)CN1CCc2ccccc2C1)c1cc(NC2COC2)ncn1 [ONC0001019, epz015666]	70.16%
COc1cc2ncnc(Sc3nnc(C)s3)c2cc1OC [ONC0005168, sklb1002]	66.94%
COC(=O)CN1CN(c2ccccc2)C2(CCN(Cc3ccc4ccccc4c3)CC2)C1=O [ONC0001693, nnc630532]	73.91%
CC[N+](C)(C)c1cccc(O)c1 [ONC0005337, edrophonium chloride]	81.25%
CC[C@H](C)C1NC(=O)[C@H](Cc2ccc(O)cc2)NC(=O)[C@@H](N)CSSC[C@@H](C(=O)N2CCC[C@H]2C(=O)N[C@@H](CC(C)C)C(=O)NCC(N)=O)NC(=O)[C@H](CC(N)=O)NC(=O)[C@H](CCC(N)=O)NC1=O (stereo partly shown) [ONC0002223, oxytocin acetate]	111%
CC(C)CC1NC(=O)C(C(C)C)NC(=O)C2CCCN2C(=O)C(CC(=O)O)NC(=O)C(Cc2c[nH]c3ccccc23)NC1=O (stereo not shown) [ONC0004583, bq123] (cyclo(DPVLW); configuration not given here)	106.9%
C[C@@H]1Cc2c([nH]c3ccccc23)[C@@H](c2c(F)cc(/C=C/C(=O)O)cc2F)N1CC(C)(C)F [ONC0001011, azd9496]	65.13%
CC(=O)Nc1cccc(-n2c(=O)n(C3CC3)c(=O)c3c(Nc4ccc(I)cc4F)n(C)c(=O)c(C)c32)c1 [ONC0002244, trametinib]	96.55%
C[C@@H](NCCCc1cccc(C(F)(F)F)c1)c1cccc2ccccc12 [ONC0004729, amg073 hcl cinacalcet hydrochloride]	102.1%
CC(=O)[C@@]1(O)CC[C@H]2[C@@H]3C=C(Cl)C4=CC(=O)[C@@H]5C[C@@H]5[C@]4(C)[C@H]3CC[C@@]21C [ONC0002332, cyproterone]	91.86%

Some of the entries above, set out differently.
Structure (SMILES) | % viability
N=C(N)NCCC[C@H](NC(=O)c1sccc1NS(=O)(=O)c1cccc2nsnc12)C(=O)O [ONC0004149, eg00229] | 88.01%
O=C(NC[C@H](O)CN1CCc2ccccc2C1)c1cc(NC2COC2)ncn1 [ONC0001019, epz015666] | 70.16%
